Laboratory results reported in patent publication US20140366224A1 (CONSEJO SUPERIOR DE INVESTIGACIONES CIENTIFICAS, published 2014).

Molecular target: Rpb10 sub-unit from RNA Polymerase II fused to split YFP
Experiment: BiFC, split YFP (FIG. 8B)

- binding: binds
B1: IYO fused to split YFP (nYFP or cYFP) (protein, not shown: large carriers)
chain: MEQSSGRVNPEQPNNVLASLVGSIVEKGISENKPPSKPLPPRPSLLSFPVARHRSHGPHLAPVGSSIAQPKDYNDDQEEEEAEERFMNADSIAAFAKPLQRKEKKDMDLGRWKDMVSGDDPASTHVPQQSRKLKIIETRPPYVASADAATTSSNTLLAARASDQREFVSDKAPFIKNLGTKERVPLNASPPLAVSNGLGTRHASSSLESDIDVENHAKLQTMSPDEIAEAQAELLDKMDPALLSILKKRGEAKLKKRKHSVQGVSITDETAKNSRTEGHFVTPKVMAIPKEKSVVQKPGIAQGFVWDAWTERVEAARDLRFSFDGNVVEEDVVSPAETGGKWSGVESAAERDFLRTEGDPGAAGYTIKEAIALARSVIPGQRCLALHLLASVLDKALNKLCQSRIGYAREEKDKSTDWEAIWAYALGPEPELVLALRMALDDNHASVVIACVKVIQCLLSCSLNENFFNILENMGPHGKDIFTASVFRSKPEIDLGFLRGCYWKYSAKPSNIVAFREEILDDGTEDTDTIQKDVFVAGQDVAAGLVRMDILPRIYHLLETEPTAALEDSIISVTIAIARHSPKCTTAILKYPKFVQTIVKRFQLNKRMDVLSSQINSVRLLKVLARYDQSTCMEFVKNGTFNAVTWHLFQFTSSLDSWVKLGKQNCKLSSTLMVEQLRFWKVCIHSGCCVSRFPELFPALCLWLSCPSFEKLREKNLISEFTSVSNEAYLVLEAFAETLPNMYSQNIPRNESGTWDWSYVSPMIDSALSWITLAPQLLKWEKGIESVSVSTTTLLWLYSGVMRTISKVLEKISAEGEEEPLPWLPEFVPKIGLAIIKHKLLSFSVADVSRFGKDSSRCSSFMEYLCFLRERSQDDELALASVNCLHGLTRTIVSIQNLIESARSKMKAPHQVSISTGDESVLANGILAESLAELTSVSCSFRDSVSSEWPIVQSIELHKRGGLAPGVGLGWGASGGGFWSTRVLLAQAGAGLLSLFLNISLSDSQNDQGSVGFMDKVNSALAMCLIAGPRDYLLVERAFEYVLRPHALEHLACCIKSNKKNISFEWECSEGDYHRMSSMLASHFRHRWLQQKGRSIAEEGVSGVRKGTVGLETIHEDGEMSNSSTQDKKSDSSTIEWAHQRMPLPPHWFLSAISAVHSGKTSTGPPESTELLEVAKAGVFFLAGLESSSGFGSLPSPVVSVPLVWKFHALSTVLLVGMDIIEDKNTRNLYNYLQELYGQFLDEARLNHRDTELLRFKSDIHENYSTFLEMVVEQYAAVSYGDVVYGRQVSVYLHQCVEHSVRLSAWTVLSNARVLELLPSLDKCLGEADGYLEPVEENEAVLEAYLKSWTCGALDRAATRGSVAYTLVVHHFSSLVFCNQAKDKVSLRNKIVKTLVRDLSRKRHREGMMLDLLRYKKGSANAMEEEVIAAETEKRMEVLKEGCEGNSTLLLELEKLKSAALCGRR

Results are given in words; binding and its absence hold for the method and conditions named. A result given as binding can be weak or reduced; the word gives no strength. Sequences can lack the tags named with a protein.
